Data: patent US12441768B2, “Compositions and methods for treating endometriosis” (EndoMet Biosciences, Inc., priority 2018, dated 2025)

Test system: Wnt-responsive promoter (TCF/LEF)
Experiment: Wnt-dependent luciferase reporter assay
Type: cell-based, murine
Experimental: The luciferase reporter assay is commonly used as a tool to study gene expression at the transcriptional level. Peptides from libraries described herein were characterized for ability to suppress transcription in cells with luciferase expression controlled by a Wnt-responsive promoter. Peptides were added to cells transfected with luciferase gene downstream of a Wnt-responsive promoter. Cells were stimulated with Wnt3a protein and incubated with peptides from libraries described herein. Luminescence was recorded to determine the peptides with the highest β-catenin-inhibiting activity. EC50 values were calculated based on the inhibition of luminescence and expressed as concentration (uM) in Table 5.
Peptides were assessed for their ability to inhibit Wnt signaling. Murine 3T3 fibroblasts that express luciferase under a Wnt-responsive promoter (TCF/LEF) (Enzo Life Sciences, Farmingdale, NY) were stimulated with Wnt3a in the presence of increasing concentrations of peptide inhibitor (Hit 1: SEQ ID NO:217, Hit 2: SEQ ID NO:224, Hit 3: SEQ ID NO:228, Hit 4: SEQ ID NO:227, Hit 5: SEQ ID NO:220, Hit 6: SEQ ID NO:168. Hit 7: SEQ ID NO:226) or with vehicle control (FIG. 2A).

Compound	Wnt Reporter Hill Slope
CC[C@H](C)[C@@H]1NC(=O)[C@@H](NC(=O)[C@H](CCC(N)=O)NC(=O)[C@H](C)N(C)C(=O)[C@H](Cc2c[nH]c3ccccc23)NC(C)=O)CCCCNC(=O)C[C@@H](C(=O)N[C@@H](Cc2c[nH]cn2)C(=O)N[C@H](C(=O)N[C@@H](CCC(N)=O)C(=O)N[C@@H](C)C(=O)N[C@H](C(N)=O)C(C)C)C2CCCCC2)NC(=O)[C@H](CC(N)=O)NC(=O)[C@H](CC(C)C)NC1=O [compound 452] (HELM PEPTIDE1{[ac].W.[meA].Q.K.I.L.N.D.H.[O=C([C@@H](N[*:1])C1CCCCC1)[*:2]].Q.A.V.[am]}$PEPTIDE1,PEPTIDE1,5:R3-9:R3$$$V2.0)	1
PQKILDEHVQRVMK [compound 486]	1.4
CCCCCCCCCCCC(=O)N[C@@H](Cc1c[nH]c2ccccc12)C(=O)N(C)[C@@H](C)C(=O)N[C@@H](CCC(N)=O)C(=O)N[C@H]1CCCCNC(=O)CC[C@@H](C(=O)N[C@@H](Cc2c[nH]cn2)C(=O)N[C@H](C(=O)N[C@H]2CCC(=O)NCCCC[C@@H](C(N)=O)NC(=O)[C@H](Cc3c[nH]c4ccccc34)NC(=O)[C@H](C(C)C)NC(=O)[C@H](CC(=O)O)NC2=O)C2CCCCC2)NC(=O)[C@H](CC(=O)O)NC(=O)[C@H](CC(C)C)NC(=O)[C@H]([C@@H](C)CC)NC1=O [compound 465] (HELM PEPTIDE1{[CCCCCCCCCCCC(=O)[*:2]].W.[meA].Q.K.I.L.D.E.H.[O=C([C@@H](N[*:1])C1CCCCC1)[*:2]].E.D.V.W.K.[am]}$PEPTIDE1,PEPTIDE1,5:R3-9:R3|PEPTIDE1,PEPTIDE1,12:R3-16:R3$$$V2.0; bridges inferred)	3
CC[C@H](C)[C@@H]1NC(=O)[C@@H](NC(=O)[C@H](CCC(N)=O)NC(=O)[C@@H]2CCCCN2C(=O)[C@H](Cc2c[nH]c3ccccc23)NC(C)=O)CCCCNC(=O)CC[C@@H](C(=O)N[C@@H](Cc2c[nH]cn2)C(=O)N[C@H](C(=O)N[C@@H](CCC(N)=O)C(=O)N[C@@H](CCCNC(=N)N)C(=O)N[C@H](C(=O)N[C@@H](Cc2c[nH]c3ccccc23)C(=O)NCC(N)=O)C(C)C)C2CCCCC2)NC(=O)[C@H](CC(=O)O)NC(=O)[C@H](CC(C)C)NC1=O [compound 442] (HELM PEPTIDE1{[ac].W.[O=C([C@@H]1CCCCN1[*:1])[*:2]].Q.K.I.L.D.E.H.[O=C([C@@H](N[*:1])C1CCCCC1)[*:2]].Q.R.V.W.G.[am]}$PEPTIDE1,PEPTIDE1,5:R3-9:R3$$$V2.0)	2
CC[C@H](C)[C@@H]1NC(=O)[C@@H](NC(=O)[C@H](CCC(N)=O)NC(=O)C(C)(C)NC(=O)[C@H](Cc2c[nH]c3ccccc23)NC(C)=O)CCCCNC(=O)CC[C@@H](C(=O)N[C@@H](Cc2c[nH]cn2)C(=O)N[C@H](C(=O)N[C@@H](CCC(N)=O)C(=O)N[C@@H](CCCNC(=N)N)C(=O)N[C@H](C(=O)N[C@@H](Cc2c[nH]c3ccccc23)C(=O)NCC(N)=O)C(C)C)C2CCCCC2)NC(=O)[C@H](CC(=O)O)NC(=O)[C@H](CC(C)C)NC1=O [compound 443] (HELM PEPTIDE1{[ac].W.[Aib].Q.K.I.L.D.E.H.[O=C([C@@H](N[*:1])C1CCCCC1)[*:2]].Q.R.V.W.G.[am]}$PEPTIDE1,PEPTIDE1,5:R3-9:R3$$$V2.0)	3
PQKILDEHVQRVMK [compound 487]	2.4
PQKILDEHVQRVMK [compound 485]	3
CC[C@H](C)[C@H](NC(=O)[C@H](CO)NC(=O)[C@H](CCC(N)=O)NC(=O)[C@@H]1CCCN1C(=O)[C@H](Cc1c[nH]c2ccccc12)NC(C)=O)C(=O)N[C@@H](CC(C)C)C(=O)N[C@@H](CC(=O)O)C(=O)N[C@H]1CCC(=O)NCCCC[C@@H](C(=O)N[C@H](C(=O)N[C@@H](Cc2c[nH]c3ccccc23)C(=O)NCC(N)=O)C(C)C)NC(=O)[C@H](CCC(N)=O)NC(=O)[C@H](C2CCCCC2)NC(=O)[C@H](Cc2c[nH]cn2)NC1=O [compound 472] (HELM PEPTIDE1{[ac].W.P.Q.S.I.L.D.E.H.[O=C([C@@H](N[*:1])C1CCCCC1)[*:2]].Q.K.V.W.G.[am]}$PEPTIDE1,PEPTIDE1,9:R3-13:R3$$$V2.0)	3
CC[C@H](C)[C@@H]1NC(=O)[C@@H](NC(=O)[C@H](CCC(N)=O)NC(=O)[C@H](C)N(C)C(=O)[C@H](Cc2c[nH]c3ccccc23)NC(=O)CCC(=O)O)CCCCNC(=O)CC[C@@H](C(=O)N[C@@H](Cc2c[nH]cn2)C(=O)N[C@H](C(=O)N[C@@H](CCC(N)=O)C(=O)N[C@@H](CCCNC(=N)N)C(=O)N[C@H](C(=O)N[C@@H](Cc2c[nH]c3ccccc23)C(=O)NCC(N)=O)C(C)C)C2CCCCC2)NC(=O)[C@H](CC(=O)O)NC(=O)[C@H](CC(C)C)NC1=O [compound 405] (HELM PEPTIDE1{[O=C(O)CCC(=O)[*:2]].W.[meA].Q.K.I.L.D.E.H.[O=C([C@@H](N[*:1])C1CCCCC1)[*:2]].Q.R.V.W.G.[am]}$PEPTIDE1,PEPTIDE1,5:R3-9:R3$$$V2.0)	0.8

Where a SMILES comes first, the peptide text is derived from it.
